# Measured values published in PubChem BioAssay AID1347131 (National Center for Advancing Translational Sciences (NCATS), 2019).
# Among all 410,000 compounds or so, about 2,000 (0.49%) were called active. Inconclusive results, whose numbers are uncertain, are shown with a selection of clear calls. Calls come from the whole dose curve; tested in HEK293 reporter line. A potency beside an inconclusive call is a rough fit, not a confirmed value.
# Assay: qHTS Assay for Foot and Mouth Disease Virus Antivirals: Primary Screen against the MLPCN compound library; note: nearly all actives have a fitted effect of over 55% in size
# Conditions: FMDV antiviral cell-based qHTS; activity, negative = inhibition: at 57.9 µM (top of the series)
# Potency is the fitted concentration of half-maximal effect.
SMILES,Potency,"activity, negative = inhibition"
C=C1C(=O)OC2C=C(CO)CCC=C(CO)CC(OC(=O)C(C)C)C12 (configuration not stated),"inconclusive: 39.8 µM [inhibitor, partial curve, poor fit]",
CCN(c1ccccc1)S(=O)(=O)c1cc(C(=O)Nc2cccc(Cl)c2)ccc1F,"inconclusive: 20 µM [inhibitor, partial curve, poor fit]",
COc1cc(/C=C2\COC/C(=C\c3ccc(O)c(OC)c3)C2=O)ccc1O,"inconclusive: 17.8 µM [inhibitor, partial curve, poor fit]",
O=C1CCc2ccc(OCCCCN3CCN(c4cccc(Cl)c4Cl)CC3)cc2N1,"inconclusive: 20 µM [inhibitor, partial curve, poor fit]",
COc1ccc(/C=C/C(=O)N2CCC(c3nc4ccccc4o3)CC2)cc1OC,"inconclusive: 35.5 µM [inhibitor, single point]",
Cc1ccc(Oc2nc3c(c(=O)n(Cc4ccccc4)c(=O)n3C)n2C)cc1C,"inconclusive: 14.1 µM [inhibitor, partial curve, poor fit]",
Cc1ccccc1CN1CCc2nc(N3CCN(c4ccccn4)CC3)ncc2C1,active: 15.8 µM,
CC(NC(=O)c1ccc(=O)oc1)c1ccccc1 (configuration not stated),"inconclusive: 2.82 µM [inhibitor, full curve]",
Cc1ccc(-n2ncc3c(N4CCC5(CC4)OCCO5)ncnc32)c(C)c1,"inconclusive: 39.8 µM [inhibitor, partial curve, poor fit]",
COc1ccccc1CN1CCNC(=O)C1CC(=O)NC1Cc2ccccc2C1 (configuration not stated),"inconclusive: 11.2 µM [inhibitor, partial curve]",
CCSc1ncc(Cl)c(C(=O)N(Cc2ccccc2Cl)C2CCS(=O)(=O)C2)n1 (configuration not stated),,inactive: -33.9%
Cc1cccc(-n2ncc(C(=O)N3CCc4ccccc4C3)c2C2CCN(C(=O)OC(C)(C)C)CC2)c1,"inconclusive: 2 µM [inhibitor, partial curve, poor fit]",
COc1ccc(-c2csc(NC(=O)C3CC(=O)N(Cc4ccccc4)C3)n2)cc1OC (configuration not stated),"inconclusive: 31.6 µM [inhibitor, partial curve, poor fit]",
O=C(Nc1ccc2c(c1)CCC2)c1cccc(S(=O)(=O)N2CCN(c3ccccc3)CC2)c1,"inconclusive: 2 µM [inhibitor, full curve]",
CCCCCCn1c(N2CCC(C)CC2)nc2c1c(=O)[nH]c(=O)n2C,"inconclusive: 20 µM [inhibitor, partial curve, poor fit]",
C=CC(=O)N1C/C(=C/c2ccc(F)cc2)C(=O)/C(=C\c2ccc(F)cc2)C1,"inconclusive: 8.91 µM [inhibitor, full curve, poor fit]",
CC(C)(C)c1nnc(N/N=C/c2cc(Br)ccc2O)n(N)c1=O,"inconclusive: 22.4 µM [inhibitor, partial curve, poor fit]",
CCCCCc1c(-c2cccc(F)c2)ncn1CCc1ccccc1OC,"inconclusive: 22.4 µM [inhibitor, partial curve, poor fit]",
CC(C)(c1ccccc1)c1ccc(OCCCNCCO)cc1,"inconclusive: 28.2 µM [inhibitor, partial curve, poor fit]",

SMILES,Potency,"activity, negative = inhibition"
Cc1cc(C(=O)CSc2nnc(N)s2)c(C)n1Cc1cccs1,"inconclusive: 14.1 µM [inhibitor, single point]",
Cc1ccc(-c2c3c(nc4sc(C(N)=O)c(N)c24)CCC3)cc1,"inconclusive: 25.1 µM [inhibitor, partial curve, poor fit]",
O=C(O)c1ccc(N/N=C/c2cc3cc4c(cc3nc2Cl)OCCO4)cc1,"inconclusive: 20 µM [inhibitor, single point]",
COc1ccc(NS(=O)(=O)c2cccc(NC(=O)c3ccc(Cl)nc3)c2)cc1,"inconclusive: 31.6 µM [inhibitor, partial curve, poor fit]",
CC1CCC(NC(=O)c2ccc3c(c2)OCO3)CC1 (configuration not stated),"inconclusive: 20 µM [inhibitor, single point]",
CCOC(=O)Cc1csc(NC(=O)COc2ccc(N(C)S(=O)(=O)c3cccs3)cc2)n1,"inconclusive: 25.1 µM [inhibitor, partial curve, poor fit]",
O=C(NCc1ccccc1)C1CCCN(S(=O)(=O)c2cccc3nsnc23)C1 (configuration not stated),"inconclusive: 10 µM [inhibitor, partial curve, poor fit]",
CCn1cc(CNCc2cn[nH]c2-c2cc3ccccc3o2)cn1,"inconclusive: 11.2 µM [inhibitor, partial curve]",
CCOC(=O)N1CCN(C(=O)COc2ccc([N+](=O)[O-])cc2)CC1,"inconclusive: 8.91 µM [inhibitor, partial curve, poor fit]",
CCN(CC)CCNC(=O)COc1ccc(OC)cc1,,inactive: -21.5%
CCn1c(=O)c([N+](=O)[O-])c(N2CCSCC2)c2ccccc21,"inconclusive: 17.8 µM [inhibitor, partial curve, poor fit]",
COc1ccc(CCCc2nnc(SCC(=O)Nc3cccc(C)c3)o2)cc1,,inactive: -33.1%
C=CCOC(=O)C1=C(C)NC(=O)NC1c1cn(-c2ccccc2)nc1-c1cccs1 (configuration not stated),"inconclusive: 22.4 µM [inhibitor, partial curve, poor fit]",
Cc1ccc2[nH]c(CSc3nnc(NC(=O)c4ccccc4F)s3)cc(=O)c2c1,,inactive: -16.8%
Cc1cccc(N2CCN(C(=O)CCC(=O)N3CC(C)Oc4ccc(C)cc43)CC2C)c1 (configuration not stated),"inconclusive: 28.2 µM [inhibitor, partial curve, poor fit]",
Nc1ccccc1C(=O)OCCOc1ccccc1,"inconclusive: 11.2 µM [inhibitor, single point]",
Cc1nn2c(=O)cc(COC(=O)c3ccc(NC(=O)c4cccc(Br)c4)cc3)nc2s1,"inconclusive: 17.8 µM [inhibitor, partial curve, poor fit]",
CN1CCN(C(=S)c2ccc(OCC(=O)Nc3cccc(C(F)(F)F)c3)cc2)CC1,"inconclusive: 20 µM [inhibitor, partial curve, poor fit]",

# As a short view, part of the list above.
SMILES,Potency,"activity, negative = inhibition"
O=C(O)c1ccc(N/N=C/c2cc3cc4c(cc3nc2Cl)OCCO4)cc1,"inconclusive: 20 µM [inhibitor, single point]",
COc1ccc(NS(=O)(=O)c2cccc(NC(=O)c3ccc(Cl)nc3)c2)cc1,"inconclusive: 31.6 µM [inhibitor, partial curve, poor fit]",
